In EP1032364B1, “TOPICAL COMPOSITIONS CONTAINING SIALYL SUGARS AND THEIR DERIVATIVES” (E-L Management Corp., priority 1998, dated 2000):
At least one compound was matched to its structure with a doubt left.

Tested on: volunteers with a history of skin sensitivity to Balsam of Peru
Experiment: in vivo skin anti-irritancy test, Balsam of Peru challenge, redness by Minolta chromameter (Example 2)
Conditions: 0.1%
Text: The following in vivo assay illustrates the effectiveness of sialyl oligosaccharide derivatives, 3'- and 6'-sialyl lactose, in preventing skin irritation. The in vivo assays used to assess efficacy of topical anti-irritants are known to those skilled in the art, examples of such assays may be found in Muizzuddin et al., 1990, J. Soc. Cosmet. Chem. 41:369-378, and Lubach et al. in Topical Corticoids, Maibach & Surber (eds.) Basel, Karger, 1992, pp. 26-41, both of which are incorporated herein by reference in their entirety. The skin anti-irritancy effects of 3'- and 6'- sialyl lactose were tested on 7 volunteers with a history of skin sensitivity to Balsam of Peru. The test compounds were applied to the ventral forearms of the panelists. The material was allowed to absorb for twenty minutes and then Balsam of Peru, an irritant, was applied to the test sites. Skin irritation was measured in terms of increase in skin redness.
The degree of redness was measured with the Minolta chromameter and compared with the positive and negative controls. The positive control was the color of skin treated with Balsam of Peru alone and the negative control was the skin treated with cola material challenged like the test material.

In the case of `CC(=O)N[C@H]1[C@H]([C@H](O)[C@H](O)CO)OC(O)(C(=O)O)C[C@@H]1O` (stereo partly shown) [Sialic Acid], the “preventing irritation caused by a topical irritant (in words)” value was “ineffective”.
